Laboratory results: PubChem BioAssay AID1671195 (Yale University, 2021)

Aim: 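Regulators of LDL receptor activity judged by labelled LDL uptake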 (primary screen)
System: human Huh7 hepatoma cells
Reagents: siRNA pool against human genes, 18 nM
Time to read-out: about 2 to 2.5 days of knockdown, then 8 h LDL uptake
Treatment: DiI-labelled LDL at 30 µg/ml for 8 h, in lipoprotein-deficient serum medium
Detection: 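Per-cell DiI-LDL intensity by automated imaging; well means scaled to the plate median and given as a robust z-score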
Direction: robust z-score: higher = more LDL uptake after knockdown
Hit rule: 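a gene counts as active if at least two replicate z-scores exceed ±2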
The deposit covers about 22,000 reagents; below is a part drawn at random. About 1,510 of them (6.9%) were called active. 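Active includes knockdowns raising or lowering LDL uptake; positive z-scores mean more uptake, negative mean less.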 Entries without a mark were called inactive. Reagents against one gene are numbered here.

no.	Target gene	reagent no.	robust z-score, replicate 1	robust z-score, replicate 2	robust z-score, replicate 3
1	PELI1	1	0.448	1.77	-0.331
2	DEMA1	1	-0.511	-0.981	-0.672
3	FGF7P6	1	-1.2	-0.992	-0.843
4	SERINC4	1	-1.5	-1.2	-1.42
5	PDZD2	1	-1.88	-1.22	-1.67
6	REEP2	1	1.26	2.6	1.63
7	PRAMEF8	1	0.728	0.668	0.619
8	PRAMEF8	2	-0.362	-0.424	0.0976
9	SH3BP5	1	-1.26	-0.381	-1.75
10	CUX1	1	-1.47	-1.03	-1.81
11	LOC442424 (retired record)	1	-1.28	-0.703	-1.14
12	LDHAL6B	1	1.06	1.29	1.1
13	PISD	1	1.64	0.876	1.24
14	LOC440858 (retired record)	1	0.567	0.112	0.296
15	BLM	1	-0.615	0.0954	0.0147
16	ITSN2	1	-0.876	-0.127	-1.27
17	EREG	1	-0.972	-0.497	-0.931
18	XPC	1	-1.41	-1.04	-0.963
19	SNX31	1	0.0854	0.436	-0.399
20	APOL2	1	0.0844	0.00599	-0.395
21	OR4D1	1	0.512	-1.01	-1.43

Quoted from the listing, 5 entries:
no.	Target gene	reagent no.	robust z-score, replicate 1	robust z-score, replicate 2	robust z-score, replicate 3
7	PRAMEF8	1	0.728	0.668	0.619
8	PRAMEF8	2	-0.362	-0.424	0.0976
9	SH3BP5	1	-1.26	-0.381	-1.75
10	CUX1	1	-1.47	-1.03	-1.81
11	LOC442424 (retired record)	1	-1.28	-0.703	-1.14

The listing continues:
no.	Target gene	reagent no.	robust z-score, replicate 1	robust z-score, replicate 2	robust z-score, replicate 3
22	FAM89A	1	-0.198	0.00313	0.069
23	AK9	1	1.82	1.11	1.59
24	AK9	2	0.601	0.325	0.0288
25	AK9	3	-0.327	-0.212	0.0787
26	DRGX	1	-0.482	-0.739	-0.394
27	DKC1	1	0.624	1.1	1.53
28	KRAS	1	0.00674	-0.478	-0.00875
29	R3HDM2	1	1.17	0.634	0.0586
30	EDDM3A	1	-0.213	-0.558	1.75
31	LRIT3	1	1.35	1.18	2.05
32	GCLM	1	-0.826	0.641	0.327
33	GSTO2	1	2.63 (active)	2.17	3.08
34	LOC441137 (retired record)	1	-0.3	-0.0733	-0.299
35	GALNT18	1	0.377	-0.28	0.403
36	KRTAP5-5	1	0.0291	-1.06	-0.323
37	GAS2L3	1	1.03	1.31	0.987
38	LOC441125 (retired record)	1	0.461	0.669	0.554
39	GLT1D1	1	0.781	1.13	0.148
40	SCNM1	1	-0.621	-0.797	-0.484
41	LINC02232	1	-0.348	-0.564	-0.455
42	GPATCH11	1	-0.171	-0.0916	-0.311
43	MACROH2A1	1	0.0841	0.322	-0.172
44	ERLIN2	1	-0.36	-0.244	-1.43
45	OR4D2	1	-0.856	-0.917	-0.291
46	GTPBP8	1	0.244	-1.22	0.177
